Laboratory results from patent US20230372263A1, “METHODS AND COMPOSITIONS FOR TREATING AMYOTROPHIC LATERAL SCLEROSIS” (Amylyx Pharmaceuticals, Inc., priority 2022, published 2023).
For part of these data: The name of at least one read-out is uncertain. For part of these data: At least one structure is not confirmed: it was looked up by name or label, or the drawing left a doubt. Some of these results come from one statement about several compounds together.

Legend:
[1] = Phase I single dose oral AMX0035 fasted/fed plasma pharmacokinetics and food effect (Protocol A35-002); format: in vivo, human
Description: • Protocol AMX3500: sparse sampling in 87 subjects with ALS. Approximately 2 samples are collected for each subject, 1 or 4 hours post dose following 12 and 24 weeks of treatment. • Protocol A35-002: rich sampling in 14 healthy adults. Approximately 21 samples are collected over 24 hours for each subject on two occasions, once following a high fat meal and the other under fasting conditions.
A total of 14 healthy subjects were enrolled in order to have no fewer than 12 subjects complete. A predefined mix of gender was selected.
Each study period followed the same study design (FIG. 1). Subjects were screened for inclusion in the study up to 28 days before dosing. Subjects were admitted to the clinical unit during Study Day −2 for Period 1 and Day −1 for Period 2 and were dosed in the morning of Day 1. On the night prior to Period 1 the subjects in the fasted/fed or fed/fasted sequence were fasted for a minimum of 10 h prior to dosing.
The solution was stirred until the powder was mostly dissolved.
Any departures from the intended regimen were recorded in the eCRFs. All dose administrations were performed in the study center under the supervision of appropriately trained staff.
Subjects were provided with a light snack and were then fasted from all food and drink (except water) until the following morning, when they were provided with a high-fat breakfast. […]

[2] = Population pharmacokinetic model and simulations of PB and PAA (healthy subjects and ALS patients); set-up: species or system human; settings: for elimination kinetics: population-PK analysis
Source text: The order of administration with and without food was randomly assigned. […] Subjects were advised to take the drug before a meal. […] No inter-occasion variability (IOV) was included.

[3] = population PK, Bootstrap Median
[4] = population PK, Final Model mean estimate

**Q.** With `O=C(O)Cc1ccccc1` [PAA, phenylacetate] as the compound, how does the “time by which eliminated from systemic circulation” value ([1]; post-dose) read?
**A.** ≤ 6 h

**Q.** What about the “median time to Cmax” value ([1]; single dose AMX0035, healthy subjects, fasting) of the same compound?
**A.** 2.5 h

**Q.** What about the “effect of age on pharmacokinetics” value ([2]; ALS patients aged 65-76 versus less than 65 years, model-based analysis) of the same compound?
**A.** no significant difference

**Q.** What about the “effect of mild renal insufficiency on pharmacokinetics” value ([2]; eGFR greater than 60 mL/min, model-based analysis) of the same compound?
**A.** no significant correlation

**Q.** What about the “relationship between exposure and body weight” value ([2]; population PK analysis) of the same compound?
**A.** inverse relationship between PAA exposure and body weight

**Q.** And the “ALS diagnosis covariate on maximum rate of elimination of PAA” value [2, 3]?
**A.** 0.271

**Q.** What about the “ALS diagnosis covariate on volume of distribution of PAA” value [2, 3] of the same compound?
**A.** −0.350

**Q.** What about the “Exponent for weight effect (covariate on maximum rate of elimination of PAA)” value [2, 3] of the same compound?
**A.** 0.930

**Q.** What about the “K, amount at which rate of elimination of PAA is half maximal” value [2, 3] of the same compound?
**A.** 7.7 µg/mL

**Q.** And the “V, maximum rate of elimination (of PAA)” value [2, 3]?
**A.** 585 mg/h/70 kg

**Q.** What about the “ALS diagnosis covariate on maximum rate of elimination of PAA” value [2, 4] of the same compound?
**A.** 0.275

**Q.** What about the “ALS diagnosis covariate on volume of distribution of PAA” value [2, 4] of the same compound?
**A.** −0.360

**Q.** And the “Exponent for weight effect (covariate on maximum rate of elimination of PAA)” value [2, 4]?
**A.** 0.92

**Q.** What about the “K, amount at which rate of elimination of PAA is half maximal” value [2, 4] of the same compound?
**A.** 7.8 µg/mL

**Q.** What about the “Mean transit time (metabolism compartment to plasma compartment for PAA)” value [2, 4] of the same compound?
**A.** 0.123 h

**Q.** What about the “V, maximum rate of elimination (of PAA)” value [2, 4] of the same compound?
**A.** 585 mg/h/70 kg

**Q.** And the elimination kinetics [2]?
**A.** non-linear (saturable) elimination

**Q.** And the elimination kinetics ([2]; listed as Phenylacetate)?
**A.** non-linear pharmacokinetics characterized by saturable metabolism
